In PubChem BioAssay AID504834 (National Center for Advancing Translational Sciences (NCATS), 2011):
Screen size: about 320,000 compounds; about 22,000 (6.9%) were called active. This list was built around the results that the source calls inconclusive (neither active nor inactive); the mix of calls is not that of the screen. The call rests on the fitted dose curve; in most records, active means well fitted inhibition curve with a large enough effect; inconclusive means small, poorly fitted or top-dose-only effect, or another doubt; inactive means no such curve, though single readings can be large or run the other way. Where the call is inconclusive, the potency comes from a doubtful curve fit.

Test: Primary qHTS for delayed death inhibitors of the malarial parasite plastid, 96 hour incubation
Conditions: P. falciparum luciferase reporter growth; series mostly up to 28.7 µM; activity change, negative = inhibition: at the top concentration
Outline: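 96 h incubation, 37 C, 5% CO2, of luciferase-reporter P. falciparum-infected RBCs (2% hematocrit, 0.05% parasitemia final) with test compounds; endpoint luminescence.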
On the % scale 0 is the no-effect control and ±100 the full control effect; potency means the concentration at half of the fitted maximal effect.

SMILES | activity change, negative = inhibition | Potency
CCOc1ccc(NC(=O)CC2C(=O)N(c3cccc(OC)c3)C(=O)N2CCOC)cc1 (stereo unspecified) | inactive: 14.5% | 
O=C(NCCc1ccccc1)c1ccc2nccnc2c1 |  | inconclusive: 10.4 µM [inhibitor, partial curve, poor fit]
COc1ccc(Br)cc1CN(C)CC(=O)NCCc1ccccc1 |  | inconclusive: 4.65 µM [inhibitor, partial curve, poor fit]
CCOc1ccc(-n2c(SCC(N)=O)nc3sc4c(c3c2=O)CCN(C)C4)cc1 |  | active: 0.657 µM
Cc1ccc(NC(=O)c2cc(=O)[nH]c3ccccc23)cc1C |  | inconclusive: 18.5 µM [inhibitor, single point]
COc1cc(C(=S)N2CCCC2)ccc1OCc1ccc(C)cc1 |  | inconclusive: 5.86 µM [inhibitor, partial curve, poor fit]
Cc1ccc(CC2CC(=O)N(CCc3ccc4c(c3)OCO4)C2=O)cc1 (stereo unspecified) | inactive: 5.98% | 
CC(C)(C)c1ccc(/C=C2\SC(=O)N=C2N)cc1 |  | inconclusive: 11.7 µM [inhibitor, single point]
Cc1ccc(S(=O)(=O)NNC(=O)C(O)(c2ccccc2C)c2ccccc2C)cc1 | inactive: 3.74% | 
CCOc1ccc(N(CC(=O)Nc2cccc(C)c2)S(C)(=O)=O)cc1 |  | inconclusive: 18.5 µM [inhibitor, partial curve, poor fit]
COc1ccc(CC(=O)NCc2ccc3c(c2)cc(C)n3C)cc1OC |  | inconclusive: 18.5 µM [inhibitor, single point]
CCCn1c2c(c(O)c(C(=O)Nc3ccccn3)c1=O)CCCC2 |  | inconclusive: 16.5 µM [inhibitor, partial curve, poor fit]
O=C(NCC(=O)N1CCCC(C(F)(F)F)C1)c1ccco1 (stereo unspecified) | inactive: 6.56% | 
CCN(CC)C(=O)C1CCCN(Cc2nc(-c3cccs3)no2)C1 (stereo unspecified) | inactive: 7.75% | 
O=C(Nc1cccc(O)c1)c1cc(-c2ccc3c(c2)OCO3)on1 |  | inconclusive: 1.65 µM [inhibitor, full curve]
Cc1nc(NCc2ccccc2)c(C(N)=O)c2c1COC(C)(C)C2 |  | inconclusive: 11.7 µM [inhibitor, single point]
COc1ccccc1N1CCN(C(=O)c2c(-c3c(Cl)cccc3Cl)noc2C)CC1 | inactive: 7.48% | 
Cc1ccc(-c2nc(SCC(=O)Nc3ccccc3OC(F)F)c3c(C)c(C(=O)O)sc3n2)cc1 |  | inconclusive: 13.1 µM [inhibitor, single point]
Cc1ccc(NC(=O)COc2cccc(-n3cnnn3)c2)cc1S(=O)(=O)N1CCOCC1 |  | inconclusive: 18.5 µM [inhibitor, single point]
CC(=O)Nc1cc(C)c2nc(NC(C)=O)sc2c1 | inactive: 59.5% | 
CC(C)C(=O)NNC(=O)c1csc(-c2cccs2)n1 | inactive: -10.1% | 
COc1cccc2cc(C(C)=O)oc12 |  | inconclusive: 1.04 µM [inhibitor, full curve]
COCCn1c(N)c(N(Cc2ccccc2)C(=O)c2ccc3ccccc3c2)c(=O)[nH]c1=O |  | inconclusive: 5.86 µM [inhibitor, partial curve]
N#Cc1nc(COc2ccccc2)oc1N1CCOCC1 |  | inconclusive: 8.28 µM [inhibitor, single point]

SMILES | activity change, negative = inhibition | Potency
O=C(COC(=O)c1c[nH]c(=O)[nH]c1=O)Nc1cccc([N+](=O)[O-])c1 | inactive: 0.509% | 
Cc1ccccc1CNC(=O)COc1ccccc1 |  | inconclusive: 0.828 µM [inhibitor, full curve, poor fit]
CC(=O)N1c2ccc(S(=O)(=O)NCC3CCC(C(=O)Nc4cc(C)ccn4)CC3)cc2CC1C (stereo unspecified) |  | inconclusive: 0.0928 µM [inhibitor, full curve, poor fit]
Cc1ccc2nc(NC(=O)CSc3nncc(=O)n3N)sc2c1 | inactive: 38.1% | 
CCC(C)(C)n1nnnc1C(c1ccc2ncccc2c1)N1CCCCCC1 (stereo unspecified) | inactive: 8.23% | 
COc1ccc(C(C)NS(=O)(=O)Cc2ccccc2)cc1 (stereo unspecified) |  | inconclusive: 2.33 µM [inhibitor, single point]
O=C(C1CC(c2ccc(F)cc2)=NO1)N1CCCc2ccccc21 (stereo unspecified) |  | active: 2.08 µM
COC(=O)Nc1ccc(S(=O)(=O)N2CCCCC2C(=O)O)cc1 (stereo unspecified) |  | inconclusive: 5.22 µM [inhibitor, partial curve, poor fit]
Clc1cc(NC2CCCCC2)ncn1 | inactive: 14.6% | 
CC1CCCCN1CCCNC(=O)C1CCN(c2nnc(-n3cccc3)s2)CC1 (stereo unspecified) |  | inconclusive: 4.15 µM [inhibitor, partial curve, poor fit]
Cc1ccc(C(C)C)c(OCC(=O)NN2C(=O)c3ccccc3C2=O)c1 |  | inconclusive: 13.1 µM [inhibitor, single point]
COc1cc(/C=C/C(=O)OCC(=O)Nc2ccc(Cl)cn2)ccc1O |  | inconclusive: 13.1 µM [inhibitor, single point]
O=C(COC(=O)/C=C/c1ccccc1)NC1CCCCC1 |  | inconclusive: 18.5 µM [inhibitor, single point]
C=CCN1C(=O)CS/C1=N\N=C\c1cccc([N+](=O)[O-])c1 |  | inconclusive: 18.5 µM [inhibitor, single point]
CCSc1ncc(/C=N/Nc2ccc([N+](=O)[O-])cc2)n1C |  | inconclusive: 4.15 µM [inhibitor, single point]
C/C(=N\NC(=O)C(C)Nc1cccc(Cl)c1)c1ccc([N+](=O)[O-])cc1 (stereo unspecified) |  | inconclusive: 9.28 µM [inhibitor, partial curve]
CC(C)(C)NC(=O)c1nc2nc(-c3ccccc3)cc(C(F)(F)F)n2n1 |  | inconclusive: 18.5 µM [inhibitor, single point]
O=C(Nc1nc(-c2cccs2)c(-c2ccccc2)s1)c1ccco1 | inactive: 11.7% | 
CCCCCCCC(=O)N1CCN(c2cc3c(cc2F)c(=O)c(C(=O)O)cn3CC)CC1 |  | inconclusive: 1.31 µM [inhibitor, full curve]
COCCNC(=O)CSc1ccc(-c2nc3ccccc3[nH]2)cn1 |  | inconclusive: 11.7 µM [inhibitor, single point]
CN(C)c1ccc(-c2nnc(-c3ccccc3F)o2)cc1 | inactive: 5.03% | 
CC/C(=N\NC(=O)CSc1ncccn1)c1ccc2c(c1)OCCO2 |  | inconclusive: 18.5 µM [inhibitor, single point]
Cc1ccc(Cl)cc1NC(=O)N[C@@H](C)C(=O)O | inactive: 35.1% | 
COc1cccc2cc(C(=O)N(Cc3ccccc3)CC3CCCO3)c(=O)oc12 (stereo unspecified) |  | inconclusive: 11.7 µM [inhibitor, single point]

SMILES | activity change, negative = inhibition | Potency
CN(C)c1ccc(/C=N/NC(=O)C(=O)N2CCCCCC2)cc1 |  | inconclusive: 18.5 µM [inhibitor, single point]
Cc1ccc(CNn2cnnc2SCc2ccc(F)cc2)cc1 |  | inconclusive: 18.5 µM [inhibitor, single point]
COC(=O)c1c(C(=O)OC)n(CCCN)c2ccc(C)cc12 |  | inconclusive: 11.7 µM [inhibitor, single point]
COCCN1C(=O)N(c2ccc(OC)cc2)C(=O)C1CC(=O)Nc1cccc(F)c1 (stereo unspecified) | inactive: 0% | 
O=C(CCSc1ccccc1)Nc1nnc(-c2cccs2)o1 | inactive: 32.3% | 
Cc1ccc(N2CC(C(=O)NCCS(=O)(=O)N3CCN(c4ccccc4)CC3)CC2=O)cc1C (stereo unspecified) | inactive: 129% | 
O=C(Cc1cccs1)Nc1nc(-c2ccc(F)cc2F)cs1 |  | inconclusive: 18.5 µM [inhibitor, single point]
O=C(CCSc1ccccc1)Nc1nnc(-c2ccccc2)o1 | inactive: -40.8% | 
COc1ccc(/C=N/NS(=O)(=O)c2ccc(F)cc2)cc1CN1CCSCC1 |  | inconclusive: 8.28 µM [inhibitor, single point]
O=c1[nH]cc(C(F)(F)F)cc1NS(=O)(=O)c1ccccc1[N+](=O)[O-] | inactive: -13.7% | 
COc1ccccc1N(CC(=O)NC(C)(C)C)S(=O)(=O)c1cccs1 | inactive: -10.5% | 
CCN(C(=O)CSc1ncn[nH]1)c1cccc2ccccc12 |  | inconclusive: 18.5 µM [inhibitor, single point]
CN(Cc1ccccc1)C(=O)c1[nH]cnc1C(=O)N[C@@H](CCCCNC(=O)OC(C)(C)C)C(=O)OC(C)(C)C |  | active: 8.28 µM
COCCN(C(=O)COC(=O)/C=C/c1ccccc1Cl)c1c(N)n(Cc2ccccc2)c(=O)[nH]c1=O |  | inconclusive: 11.7 µM [inhibitor, single point]
O=C(O)CC/C(=N/Nc1ncc(C(F)(F)F)cc1Cl)C(=O)O | inactive: 4.46% | 
CC[N+](C)(CC)CCCCOc1ccc2c(c1)C(=O)c1cc(OCCCC[N+](C)(CC)CC)ccc1-2 |  | inconclusive: 0.0037 µM [inhibitor, full curve, poor fit]
Cc1nnc(SCC(=O)Nc2cccc(N)c2)n1-c1ccccc1 |  | inconclusive: 13.1 µM [inhibitor, single point]
CCn1c(SCC(=O)c2ccc3c(c2)Cc2ccccc2-3)nnc1-c1ccc(N)cc1 |  | inconclusive: 0.0026 µM [inhibitor, full curve, poor fit]
Cc1ccc(/C=C/C(=O)Nc2cccnc2)o1 | inactive: 65.2% | 
O=C(Nc1ccc(N2CCN(c3ccc(C(F)(F)F)cn3)CC2)nc1)c1cccs1 |  | inconclusive: 0.0029 µM [inhibitor, full curve, poor fit]
Cn1c(=O)cc(OCCCC(=O)Nc2ccc3c(c2)OCCO3)c2ccccc21 |  | inconclusive: 18.5 µM [inhibitor, partial curve, poor fit]
c1ccc(C2=Nc3ccccc3NC(c3ccccc3)C2)cc1 (stereo unspecified) | inactive: 32.4% | 
Cc1ccc(-c2csc(N(CCc3ccccc3)C(=O)COc3ccccc3)n2)cc1 |  | inconclusive: 2.62 µM [inhibitor, partial curve, poor fit]

Quoted from the listing.
activity change, negative = inhibition, Cc1ccc(N2CC(C(=O)NCCS(=O)(=O)N3CCN(c4ccccc4)CC3)CC2=O)cc1C (stereo unspecified) is entered as inactive: 129%
activity change, negative = inhibition, Cc1ccc(/C=C/C(=O)Nc2cccnc2)o1 is entered as inactive: 65.2%
Potency, CN(C)c1ccc(/C=N/NC(=O)C(=O)N2CCCCCC2)cc1 is entered as inconclusive: 18.5 µM [inhibitor, single point]
activity change, negative = inhibition, c1ccc(C2=Nc3ccccc3NC(c3ccccc3)C2)cc1 (stereo unspecified) is entered as inactive: 32.4%
Potency, O=C(Nc1ccc(N2CCN(c3ccc(C(F)(F)F)cn3)CC2)nc1)c1cccs1 is entered as inconclusive: 0.0029 µM [inhibitor, full curve, poor fit]
Potency, Cc1ccc(CNn2cnnc2SCc2ccc(F)cc2)cc1 is entered as inconclusive: 18.5 µM [inhibitor, single point]
